Data as given in patent US7595056B1, “Methods of rejuvenating Leydig cells and enhancing testosterone production in a male subject” (University of Tennessee Research Foundation, priority 2002, dated 2009).

System: testis of Brown Norway rats
Assay: Microscopy and stereology of the testis of aged Brown Norway rats treated 4 weeks with LH, T4 or LH+T4
Assay type: in vivo, Brown Norway rat
Conditions: 19M Brown Norway rats after 4 weeks subdermal osmotic pump (LH 24 μg/day, T4 5 μg/day), n=8
Excerpt: Male Brown Norway rats aged 3, 6, 12 (n=8 per group; 3M, 6M, and 12M, respectively), and 18 months (M) (n=32; 18M) were purchased from Harlan (Madison, Wis., United States of America). The 18M rats were divided equally into four groups (n=8 per group). Under deep inhalation anesthesia (METOFANE™; Malincroft Veterinary, Inc., Mundelein, Ill., United States of America), the four groups of 18M rats were implanted subdermally with ALZET™ mini-osmotic pumps (model 2ML4; Alza Corporation, Palo Alto, Calif., United States of America), containing saline (control), LH (24 μg/day; National Hormone and Pituitary Program, Los Angeles, Calif., United States of America), thyroxine (T4; 5 μg/day; Sigma, St. Louis, Mo., United States of America), and LH and T4 (LH+T4; two pumps, 24 […] of T4), respectively, for 4 weeks (to 19 months [19M] of age). These doses of LH (Mendis-Handagama et al., (1998) Tissue Cell 30:64-73) and thyroid hormone (Ariyaratne et al., (2000) Biol. Reprod. 63:1115-1123) were used based on previously published studies. Rats were maintained under conditions of controlled temperature (25° C.) and lighting (14 hour/10 hour light/dark cycle) and were housed individually (one rat per cage). The animals were fed with Agway PROLAB™ rat formula (Agway, Syracuse, N.Y., United States of America) and water ad libitum until they were sacrificed. The animal protocol employed (No. 488) meets the guidelines of the National Institutes of Health and was approved by the University of Tennessee Animal Care and Concerns Committee.
Pumps were filled with either saline, LH, or T4, and were primed in saline for 3 hours before implantation so that they would deliver their contents immediately on subdermal implantation into the interscapular region. The LH+T4 rats received two pumps each, one containing LH and one containing T4; the other rats received one pump containing either saline, LH, or T4. After 4 weeks of treatment, rats were sacrificed. In addition, implanted pumps were removed and examined to verify that they had delivered their contents as expected.
One testis of each rat in the 3M, 6M, 12M, and 19M age groups was removed, cleaned of fat, and weighed on a Mettler H54 balance to obtain the fresh testis weight. Using the flotation technique (Mendis-Handagama et al., (1988) Am. J. Anat. 181:12-22; Mori & Christensen, (1980) J. Cell. Biol. 84:340-354; and Mendis-Handagama & Ewing, (1990) J. Microsc. (Oxf) 159:73-82), the specific gravity of the fresh testis was determined as described previously (Mori & Christensen, (1980) J. Cell. Biol. 84:340-354 and Mendis-Handagama & Ewing, (1990) J. Microsc. (Oxford) 159:73-82), and the fresh testis volume was calculated by dividing the fresh testis weight by the specific gravity (in metric units, specific gravity equals density). This measurement is required to express Leydig cell numbers per testis, because numerical density is obtained as a number per unit volume of the testis. The testis was then decapsulated, and the entire testis was incubated for 3 hours in the same medium as described previously (Ariyaratne et al., (2000) Biol. Reprod. 63:1115-1123; Mendis-Handagama et al., (1998) Biol. Reprod. 59:351-357; Mendis-Handagama et al., (1990) J. Androl. 11:548-554; Ariyaratne et al., (2000) Biol. Reprod. 63:493-502; and Ariyaratne & Mendis-Handagama, (2000) Biol. Reprod. 62:158-168) to determine the LH-stimulated testosterone-secretory capacity per testis in vitro. Testosterone levels in the incubation medium were measured by RIA using commercially available kits (COAT-A-COUNT™), and the details of the assay are given above (see Laboratory Example 4). Testosterone-secretory capacity per Leydig cell was calculated by dividing the testosterone-secretory capacity per testis by the number of Leydig cells per testis. […]

## N[C@@H](Cc1cc(I)c(Oc2cc(I)c(O)c(I)c2)c(I)c1)C(=O)O [T4, L-3,5,3′,5′-tetraiodothyronine]
  Mean Testis volume: 1838 mm^3
mean
  Macrophage number per Testis: 7.65 10^6
  Volume density of Blood vessels: 2.61%
  Volume density of Connective tissue cells: 1 .25%
  Volume density of Interstitium: 12.165%
  Volume density of Lymphatic space: 5.29%
  Volume density of Macrophages: 0.523%
Per testis
  Mean Absolute Volume of Blood vessels: 47.97 mm^3
  Mean Absolute Volume of Connective tissue cells: 22.96 mm^3
  Mean Absolute Volume of Interstitium: 226.74 mm^3
  Mean Absolute Volume of Lymphaticspace: 97.19 mm^3
  Mean Absolute Volume of Macrophages: 10.58 mm^3
